Measured values: patent US5221664A, “Composition and treatment with biologically active peptides and toxic cations” (Magainin Pharmaaceuticals Inc., priority 1991, dated 1993)
In brackets after ≈: the same amount, converted by molar mass. Read-outs that look alike come from different tables or passages of the source. At least one peptide structure holds a part that was inferred or is arguable (an end, a ring closure or a residue). Square brackets hold non-standard residues; d marks the D form. Ends that are not written are not given here. Peptide text beside a SMILES is read from it. Orn = NCCC[C@H](N)C(=O)O

Tested on: clinical isolate of a methicillin resistant S. aureus (MSRA)
Format: cell-based
Details: for MIC: agent alone, methicillin resistant S. aureus clinical isolate; for MIC of the peptide: methicillin resistant S. aureus
Protocol: Approximately 1-5×10^5 CFUs of a clinical isolate of a methicillin resistant S. aureus (MSRA), dispersed in 100 μl of TSB were added to each test well. […] The MIC of each peptide alone, and of silver nitrate alone was determined. The MIC of each peptide when 5 μg/ml and/or 10 μg/ml of silver nitrate was added was determined as well.

Row | Compound | MIC [µg/mL] | MIC of the peptide (plus 5 μg/ml silver nitrate) [µg/mL] | MIC of the peptide (plus 10 μg/ml silver nitrate) [µg/mL]
1 | GIGKFLKKAKKFGKAFVKIMKK [B13-33 peptide] | 4 | 1 | < 0.03
2 | KIAGKIAKIAGKIAKIAGKIA [Peptide 1, [KIAGKIA]3] | 8 |  | 1
3 | CC[C@H](C)[C@H](NC(=O)[C@H](CCCCN)NC(=O)CNC(=O)[C@H](C)NC(=O)[C@@H](NC(=O)[C@H](CCCCN)NC(=O)[C@H](C)NC(=O)[C@@H](NC(=O)[C@H](CCCN)NC(=O)CNC(=O)[C@H](C)NC(=O)[C@@H](NC(=O)[C@H](CCCCN)NC(=O)[C@H](C)NC(=O)[C@@H](NC(=O)[C@H](CCCCN)NC(=O)CNC(=O)[C@H](C)NC(=O)[C@@H](NC(=O)[C@@H](N)CCCCN)[C@@H](C)CC)[C@@H](C)CC)[C@@H](C)CC)[C@@H](C)CC)[C@@H](C)CC)C(=O)N[C@@H](C)C(=O)O [Peptide 2, KIAGKIAKIAGOIAKIAGKIA] (H-KIAGKIAKIAG[Orn]IAKIAGKIA-OH) | 8 (≈ 3.9 µM) |  | 1
